Counter-ions that a name gives are not always drawn. The list shows a part of the results. This data set is noisy: repeats of one test often differ as much as different tests do.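 Screen of FDA-approved drugs, each combined with colistin at one-eighth of its MIC, against a multidrug-resistant mcr-1-positive clinical E. coli isolate; growth read as OD600 after 24 h. Bacteria without drug were the growth control and plain broth the blank. A combination counted as active when OD600 fell below 0.2.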
system: Escherichia coli 42 (mcr-1-positive clinical isolate); test: OD600 after 24 h growth with compound plus colistin (absorbance units (OD600)); higher = more bacterial growth (less inhibition); conditions: first compound 25 µM; colistin concentration 0.5 ug/mL; incubation time 24 h; 37 °C

OD600, inactive:
CC(=O)O[C@]1(C(C)=O)CC[C@H]2[C@@H]3CCC4=CC(=O)CCC4=C3[C@@H](c3ccc(N(C)C)cc3)C[C@@]21C [Ulipristal acetate] + CCC(C)CCCC(=O)N[C@@H](CCN)C(=O)N[C@H](C(=O)N[C@@H](CCN)C(=O)N[C@H]1CCNC(=O)[C@H]([C@@H](C)O)NC(=O)[C@H](CCN)NC(=O)[C@H](CCN)NC(=O)[C@H](CC(C)C)NC(=O)[C@@H](CC(C)C)NC(=O)[C@H](CCN)NC1=O)[C@@H](C)O [colistin] 0.903
CC(C)OC(=O)CCC/C=C\C[C@@H]1[C@@H](CC[C@@H](O)CCc2ccccc2)[C@H](O)C[C@@H]1O [Latanoprost] + CCC(C)CCCC(=O)N[C@@H](CCN)C(=O)N[C@H](C(=O)N[C@@H](CCN)C(=O)N[C@H]1CCNC(=O)[C@H]([C@@H](C)O)NC(=O)[C@H](CCN)NC(=O)[C@H](CCN)NC(=O)[C@H](CC(C)C)NC(=O)[C@@H](CC(C)C)NC(=O)[C@H](CCN)NC1=O)[C@@H](C)O [colistin] 1.17
CCCCNc1ccc(C(=O)OCCN(C)C)cc1 [Tetracaine hydrochloride] + CCC(C)CCCC(=O)N[C@@H](CCN)C(=O)N[C@H](C(=O)N[C@@H](CCN)C(=O)N[C@H]1CCNC(=O)[C@H]([C@@H](C)O)NC(=O)[C@H](CCN)NC(=O)[C@H](CCN)NC(=O)[C@H](CC(C)C)NC(=O)[C@@H](CC(C)C)NC(=O)[C@H](CCN)NC1=O)[C@@H](C)O [colistin] 1.12
